The text below walks through data of paper PMC9179584.

By UniProt entry, the sequences of proteins in these tests, tags left out.
UniProt Q15796: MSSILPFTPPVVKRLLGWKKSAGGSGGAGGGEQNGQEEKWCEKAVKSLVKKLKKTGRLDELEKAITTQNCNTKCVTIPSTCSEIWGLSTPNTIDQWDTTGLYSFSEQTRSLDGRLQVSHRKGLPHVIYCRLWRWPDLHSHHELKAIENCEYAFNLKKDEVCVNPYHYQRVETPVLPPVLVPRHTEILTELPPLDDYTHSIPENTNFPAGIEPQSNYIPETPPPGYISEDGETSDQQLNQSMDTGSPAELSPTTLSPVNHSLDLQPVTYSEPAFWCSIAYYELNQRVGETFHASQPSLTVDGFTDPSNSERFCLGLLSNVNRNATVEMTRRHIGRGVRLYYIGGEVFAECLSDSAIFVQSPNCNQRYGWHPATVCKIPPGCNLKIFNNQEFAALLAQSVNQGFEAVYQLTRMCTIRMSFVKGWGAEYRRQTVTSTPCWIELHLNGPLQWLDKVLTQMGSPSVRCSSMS
UniProt P84022: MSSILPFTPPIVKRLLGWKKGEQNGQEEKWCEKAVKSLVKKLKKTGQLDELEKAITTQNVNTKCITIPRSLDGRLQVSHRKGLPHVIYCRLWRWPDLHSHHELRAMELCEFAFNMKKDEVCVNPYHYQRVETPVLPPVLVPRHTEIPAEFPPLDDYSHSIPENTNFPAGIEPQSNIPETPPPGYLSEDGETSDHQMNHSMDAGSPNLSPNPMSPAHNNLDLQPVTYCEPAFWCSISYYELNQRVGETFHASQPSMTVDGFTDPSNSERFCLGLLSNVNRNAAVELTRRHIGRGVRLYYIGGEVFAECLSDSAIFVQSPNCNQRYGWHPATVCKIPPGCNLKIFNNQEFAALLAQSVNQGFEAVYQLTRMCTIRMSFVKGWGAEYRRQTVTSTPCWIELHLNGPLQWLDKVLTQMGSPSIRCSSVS

Results are given in words; binding and its absence hold for the method and conditions named. In cells and extracts the contact can be indirect. Some entries that bind do so weakly or less than the wild type.

For this assay, the target named is T1, SMAD Anchor for Receptor Activation (SARA) (human (endogenous in HT-1080)) (UniProt O95405).
T1 sequence: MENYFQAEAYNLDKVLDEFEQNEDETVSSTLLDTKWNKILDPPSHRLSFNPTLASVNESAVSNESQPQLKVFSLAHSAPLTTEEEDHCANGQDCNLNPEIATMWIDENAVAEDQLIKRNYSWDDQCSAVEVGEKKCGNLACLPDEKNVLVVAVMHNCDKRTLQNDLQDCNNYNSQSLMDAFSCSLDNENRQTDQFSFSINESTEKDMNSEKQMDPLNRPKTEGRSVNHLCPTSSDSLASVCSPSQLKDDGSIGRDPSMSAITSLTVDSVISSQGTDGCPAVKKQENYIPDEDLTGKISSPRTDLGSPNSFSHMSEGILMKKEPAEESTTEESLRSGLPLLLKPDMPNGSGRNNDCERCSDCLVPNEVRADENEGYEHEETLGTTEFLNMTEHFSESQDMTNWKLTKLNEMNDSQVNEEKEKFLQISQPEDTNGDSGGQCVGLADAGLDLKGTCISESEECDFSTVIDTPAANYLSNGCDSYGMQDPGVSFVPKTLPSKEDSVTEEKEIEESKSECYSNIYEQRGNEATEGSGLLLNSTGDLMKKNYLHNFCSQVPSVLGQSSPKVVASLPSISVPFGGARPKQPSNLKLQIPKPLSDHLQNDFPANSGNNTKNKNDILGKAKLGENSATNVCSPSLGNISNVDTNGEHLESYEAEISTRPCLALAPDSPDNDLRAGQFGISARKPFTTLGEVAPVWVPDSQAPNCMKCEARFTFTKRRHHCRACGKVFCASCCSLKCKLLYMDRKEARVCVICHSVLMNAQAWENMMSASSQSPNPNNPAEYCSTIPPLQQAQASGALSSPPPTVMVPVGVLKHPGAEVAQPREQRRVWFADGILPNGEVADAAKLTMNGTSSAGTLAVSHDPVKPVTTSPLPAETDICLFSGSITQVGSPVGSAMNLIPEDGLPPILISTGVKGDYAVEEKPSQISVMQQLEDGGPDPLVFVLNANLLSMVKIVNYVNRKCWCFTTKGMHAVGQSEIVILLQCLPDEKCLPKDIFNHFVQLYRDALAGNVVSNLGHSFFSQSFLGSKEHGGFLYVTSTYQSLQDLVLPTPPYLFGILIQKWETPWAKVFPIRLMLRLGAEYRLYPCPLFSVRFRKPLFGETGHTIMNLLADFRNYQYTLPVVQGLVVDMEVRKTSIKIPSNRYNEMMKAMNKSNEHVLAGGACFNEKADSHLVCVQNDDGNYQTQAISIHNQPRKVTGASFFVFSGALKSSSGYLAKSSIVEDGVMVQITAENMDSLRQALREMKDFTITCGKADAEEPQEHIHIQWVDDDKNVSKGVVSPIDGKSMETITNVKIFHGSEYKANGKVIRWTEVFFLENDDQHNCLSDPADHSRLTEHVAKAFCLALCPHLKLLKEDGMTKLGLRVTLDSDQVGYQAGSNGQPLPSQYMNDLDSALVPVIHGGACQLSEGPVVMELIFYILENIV
The experiment in a line: co-IP; endogenous proteins, HT-1080 cells 3 h in hypoxia (1% O2) with or without tubacin (10 µM) or CAY10603 (1 µM); NP-40 lysate, IP of SARA, protein A-agarose; SMAD3 and SMAD2 blotted.

As to SMAD2 (from UniProt Q15796 1-467), the binding entry is listed as “binds”.

In the case of SMAD3 (from UniProt P84022 1-425), the binding entry was “binds”.
